The list shows a part of the results.
target: T1, OsSMF1 (Oryza sativa, UniProt Q6ZLB0 1-436); assay: protein-binding microarray (RPBM); PBS, 2% BSA, 51.3 ng/ul salmon testes DNA, 50 uM zinc acetate, 200 nM TF, 25 C, 1 h; high values mean tight binding; conditions: protein: recombinant; tags: N-terminal polyhistidine and DsRed monomer fusion (pET32a); chain copies: 2; label: CyDye5-dUTP incorporated in the synthesized complementary strand; 3' TTTTT single-stranded linker to array surface; dsDNA, one strand shown
T1 sequence: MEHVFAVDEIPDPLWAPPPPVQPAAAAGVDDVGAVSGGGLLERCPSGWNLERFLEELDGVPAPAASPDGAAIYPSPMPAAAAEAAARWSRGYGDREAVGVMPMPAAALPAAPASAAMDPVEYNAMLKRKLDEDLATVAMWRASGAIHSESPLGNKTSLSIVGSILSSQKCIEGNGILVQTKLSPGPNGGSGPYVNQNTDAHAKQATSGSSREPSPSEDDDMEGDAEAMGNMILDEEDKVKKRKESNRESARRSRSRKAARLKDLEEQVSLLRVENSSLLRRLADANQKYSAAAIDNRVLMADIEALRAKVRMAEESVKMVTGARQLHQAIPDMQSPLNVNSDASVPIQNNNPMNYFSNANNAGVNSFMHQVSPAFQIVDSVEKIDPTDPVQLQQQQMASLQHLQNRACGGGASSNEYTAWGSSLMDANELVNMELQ
How it was run: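 The binding signal is fluorescence intensity per array feature (arbitrary units). Readings came from an Axon 4000B scanner after a washed, 2% BSA-blocked, double-stranded custom Agilent array had been incubated for 1 h at 25 °C with 200 nM protein and 50 µM zinc acetate. The protein was a Ni–NTA-purified transcription factor fused N-terminally to polyhistidine and DsRed, expressed in E. coli BL21-CodonPlus.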

Row | Sequence | binding signal
1 | TGAGATTAACGACAAATGGTTCCGCGTCACCGGGTCAGAGCGGAGTCACCTAGTGCAG | 9000 fluorescence intensity (a.u.)
2 | TGATCAAACTGGGATGGAGGGAGTAGTAGTACCAATCATTCGGAGTCACCTAGTGCAG | 3330 fluorescence intensity (a.u.)
3 | TCCAGCCACGCCTCGTCACTCGCCACCCACACTGCGCAAGCGGAGTCACCTAGTGCAG | 7390 fluorescence intensity (a.u.)
4 | ACATCAACTATCACAAATGCTATGACTAATGCTTGATTCGCGGAGTCACCTAGTGCAG | 4500 fluorescence intensity (a.u.)
5 | TTACATTGCTGACATATGTGTTGTTCAAACTTGAAATTTGCGGAGTCACCTAGTGCAG | 4000 fluorescence intensity (a.u.)
6 | TAGATCGTGTAACTGAGGCGAGCTGACCTGGCTTGTTTTCCGGAGTCACCTAGTGCAG | 7730 fluorescence intensity (a.u.)
7 | GATTCATTCGGGCTGGCTACGATCCTGGATGCATCAGTCACGGAGTCACCTAGTGCAG | 4700 fluorescence intensity (a.u.)
8 | TTTGCATGCTTCATTACCACCTTCATCCACGTTGAAAGTACGGAGTCACCTAGTGCAG | 4160 fluorescence intensity (a.u.)
9 | GTGGTACACGCATGCTGACTAATTAAGACCGACAGAATCCCGGAGTCACCTAGTGCAG | 3390 fluorescence intensity (a.u.)
10 | TCTCCTGGTTTTGTGTGTTAGCGCTGTCAGTGTGTGGGTGCGGAGTCACCTAGTGCAG | 3780 fluorescence intensity (a.u.)
11 | TATGCAATCGAACTGTGTCACGTGGAAACTGACGTGAAGTCGGAGTCACCTAGTGCAG | 5140 fluorescence intensity (a.u.)
12 | CCGCAATCAAAATTTAAATTTTAAAACTTAACTTTATAGTCGGAGTCACCTAGTGCAG | 18700 fluorescence intensity (a.u.)
13 | CCGCCATCTCTGCCCCTCCACCGTCGTCGACGAACCGCCGCGGAGTCACCTAGTGCAG | 3200 fluorescence intensity (a.u.)
14 | TAAGGTTTGTAAGTAACTTAAGGCATGTCGTCATTGCCATCGGAGTCACCTAGTGCAG | 3400 fluorescence intensity (a.u.)
15 | TCACCCTGTCCTCGTCACGTCCCATTTTACATCCACCACCCGGAGTCACCTAGTGCAG | 6570 fluorescence intensity (a.u.)
16 | CAACGTTCCAACAAAATCAAGCGTCACCTCCTCGGAAACACGGAGTCACCTAGTGCAG | 4370 fluorescence intensity (a.u.)
17 | TCCGGTTTCTAGCTTCTAGTTTGTTTTATAGATTCTTTAGCGGAGTCACCTAGTGCAG | 25200 fluorescence intensity (a.u.)
18 | TGGCCCGTAGTCAACATGCCACGTGGATGCCACATATGACCGGAGTCACCTAGTGCAG | 6700 fluorescence intensity (a.u.)
19 | GGAGAGGAAGGGGATGAGGTGGATTTTCTTGGAAGGACACCGGAGTCACCTAGTGCAG | 3670 fluorescence intensity (a.u.)
20 | CTCTGCCATGGCGGCGCCGGCAGCCGTTCTTGCCGTGCTCCGGAGTCACCTAGTGCAG | 24200 fluorescence intensity (a.u.)
21 | TCGGTCTCTCCACCGATCGCGCCCGCGACACGTACGACGGCGGAGTCACCTAGTGCAG | 7410 fluorescence intensity (a.u.)
22 | ATATAATGAAATTTCAGAGAGGGTGGACTGGGCTTTATAGCGGAGTCACCTAGTGCAG | 13400 fluorescence intensity (a.u.)
23 | GCGCGGCGGCACGAGGACGACGCTGCGGTGGAGAGGAAAACGGAGTCACCTAGTGCAG | 31600 fluorescence intensity (a.u.)

Taken from the listing for reference:
Row | Sequence | binding signal
14 | TAAGGTTTGTAAGTAACTTAAGGCATGTCGTCATTGCCATCGGAGTCACCTAGTGCAG | 3400 fluorescence intensity (a.u.)
15 | TCACCCTGTCCTCGTCACGTCCCATTTTACATCCACCACCCGGAGTCACCTAGTGCAG | 6570 fluorescence intensity (a.u.)

From publication PMC7819943, “Rice protein-binding microarrays: a tool to detect cis-acting elements near promoter regions in rice”
